# Test results reported in patent US10980775B2, “Composition for prevention or treatment of cutaneous disorder” (XANTIAL, priority 2015, dated 2021).
# At least one structure is not confirmed: it was looked up by name or label, or the drawing left a doubt.
# System: collagen I expression in NHDF
# Experiment: Collagen I expression in NHDF stimulated with vitamin C+TGF-beta, in situ immunolabeling
# Assay type: cell-based, human
# Settings: NHDF stimulated with vitamin C and TGF-beta
# Method: Analysis of collagen I expression in NHDF stimulated with vitamin C+TGF-beta by in situ immunolabeling. Activated HMVEC release TGF-beta which stimulates extracellular matrix synthesis by NHDF. TGF-beta stimulates the synthesis of collagen and vitamin C its release, creating experimental conditions close to TSC pathology conditions.
# Normal Human Dermal Fibroblasts (NHDF) • Cell type: NHDF, used at the 8th passage • Culture conditions: 37° C., 5% CO2 • Culture medium: DMEM supplemented with L-glutamine 2 mM, Penicillin 50 U/ml—Streptomycin 50 μg/ml Fetal calf serum (FCS) 10% • Assay medium: DMEM supplemented with L-glutamine 2 mM, Penicillin 50 U/ml, Streptomycin 50 μg/ml FCS 1%. Culture and Treatment
# The fibroblasts were seeded in 96-well plates and cultured in culture medium for 24 hours. The medium was then replaced with assay medium containing or not (control) the test compounds or associations in presence or not (non-stimulated control) of the association vitamin C+TGF-beta (20 μg/ml+10 ng/ml). The cells were incubated for 72 hours. All experimental conditions were performed in n=3.
# After incubation, culture media were discarded and the cells were rinsed, fixed and permeabilized. […]
# The labeling was quantified by the measurement of the fluorescence intensity normalized to the total number of cells (Integration of numerical data with the Developer Toolbox 1.5, GE Healthcare software).
compound,measurement,value
COc1cc2c(cc1O)CCC(C)(C)O2 [Dimethylmethoxy chromanol],"inhibition of collagen I expression, in words",moderate inhibition
